In US20050048477A1 (published 2005):
These are yes or no findings as the source states them, for the method shown. Some entries that bind do so weakly or less than the wild type. Blank lines part the entries; values can stand above or below the molecule they belong to.

How the values were obtained:
[1] = molecular target: T1, plasma membrane targeted Cna1p (Myr-Cna1) (yeast) (UniProt P23287); assay: 80-Trap assay in yeast, HIS3 reporter growth; interaction elicited by FK506 at 0.25 µg/mL
T1 sequence (chain, N-myristoylation at the N-terminal signal): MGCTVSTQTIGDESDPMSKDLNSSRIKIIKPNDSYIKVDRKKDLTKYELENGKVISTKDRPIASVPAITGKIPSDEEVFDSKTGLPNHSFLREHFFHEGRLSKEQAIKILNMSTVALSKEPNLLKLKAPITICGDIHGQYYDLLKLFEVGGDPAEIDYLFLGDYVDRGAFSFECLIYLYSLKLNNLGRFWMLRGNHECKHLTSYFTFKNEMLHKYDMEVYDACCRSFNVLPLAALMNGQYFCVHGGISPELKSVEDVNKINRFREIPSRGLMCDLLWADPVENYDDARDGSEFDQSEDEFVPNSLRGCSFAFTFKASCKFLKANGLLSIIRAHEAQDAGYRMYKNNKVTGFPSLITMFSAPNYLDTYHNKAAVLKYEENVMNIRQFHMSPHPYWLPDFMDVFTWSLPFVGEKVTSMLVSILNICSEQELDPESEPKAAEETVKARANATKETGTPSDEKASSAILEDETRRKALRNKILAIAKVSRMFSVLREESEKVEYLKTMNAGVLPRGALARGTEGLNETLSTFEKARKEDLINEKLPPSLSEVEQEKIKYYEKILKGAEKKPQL

[2] = molecular target: T2, Myr-TAF145 (UniProt P46677); assay: 80-Trap assay in yeast, HIS3 reporter growth without galactose
T2 sequence (chain, N-myristoylation at the N-terminal signal): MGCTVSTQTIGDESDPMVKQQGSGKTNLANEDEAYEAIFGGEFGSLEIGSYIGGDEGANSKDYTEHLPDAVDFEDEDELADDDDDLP

- binding [1]: binds
Molecule: Gal80-Fpr1p fusion (from UniProt P04387 1-435; P20081 1-114)

- binding [2]: binds
B1: Gal80-TBP (protein, UniProt P04387 1-435, looked up)
chain: MDYNKRSSVSTVPNAAPIRVGFVGLNAAKGWAIKTHYPAILQLSSQFQITALYSPKIETSIATIQRLKLSNATAFPTLESFASSSTIDMIVIAIQVASHYEVVMPLLEFSKNNPNLKYLFVEWALACSLDQAESIYKAAAERGVQTIISLQGRKSPYILRAKELISQGYIGDINSIEIAGNGGWYGYERPVKSPKYIYEIGNGVDLVTTTFGHTIDILQYMTSSYFSRINAMVFNNIPEQELIDERGNRLGQRVPKTVPDHLLFQGTLLNGNVPVSCSFKGGKPTKKFTKNLVIDIHGTKGDLKLEGDAGFAEISNLVLYYSGTRANDFPLANGQQAPLDPGYDAGKEIMEVYHLRNYNAIVGNIHRLYQSISDFHFNTKKIPELPSQFVMQGFDFEGFPTLMDALILHRLIESVYKSNMMGSTLNVSNISHYSLMADEERLKEFKEANKIVFDPNTRQVWENQNRDGTKPATTFQSEEDIKRAAPESEKDTSATSGIVPTLQNIVATVTLGCRLDLKTVALHARNAEYNPKRFAAVIMRIREPKTTALIFASGKMVVTGAKSEDDSKLASRKYARIIQKIGFAAKFTDFKIQNIVGSCDVKFPIRLEGLAFSHGTFSSYEPELFPGLIYRMVKPKIVLLIFVSGKIVLTGAKQREEIYQAFEAIYPVLSEFRKM
